This assay deals with CD45 (RA, RB, and RC) on normal T and B cells (human (endogenous in primary human lymphocytes)) (UniProt P08575). Kind of assay: flow cytometry on cells; soluble CD301-6xHis incubated with primary human lymphocytes (CD4+ T cells, CD19+ B cells, resting/activated T cells); Tn-high Jurkat-TCRβ-/- cells as positive cells (Figures S2C, S2E); only the binder purified. (Flow cytometry measures light scatter and fluorescence of single cells or particles in a stream.)

The chains behind the UniProt entries cited, without tags or fusion partners. Where a name states a change or a piece, a line headed by the entry shows the natural chain unless it says otherwise. A line that says so, or that is headed by a name, gives the form on record, which may keep a tag or linker.
CD45 (RA, RB, and RC) on normal T and B cells (human (endogenous in primary human lymphocytes)) (P08575, form named): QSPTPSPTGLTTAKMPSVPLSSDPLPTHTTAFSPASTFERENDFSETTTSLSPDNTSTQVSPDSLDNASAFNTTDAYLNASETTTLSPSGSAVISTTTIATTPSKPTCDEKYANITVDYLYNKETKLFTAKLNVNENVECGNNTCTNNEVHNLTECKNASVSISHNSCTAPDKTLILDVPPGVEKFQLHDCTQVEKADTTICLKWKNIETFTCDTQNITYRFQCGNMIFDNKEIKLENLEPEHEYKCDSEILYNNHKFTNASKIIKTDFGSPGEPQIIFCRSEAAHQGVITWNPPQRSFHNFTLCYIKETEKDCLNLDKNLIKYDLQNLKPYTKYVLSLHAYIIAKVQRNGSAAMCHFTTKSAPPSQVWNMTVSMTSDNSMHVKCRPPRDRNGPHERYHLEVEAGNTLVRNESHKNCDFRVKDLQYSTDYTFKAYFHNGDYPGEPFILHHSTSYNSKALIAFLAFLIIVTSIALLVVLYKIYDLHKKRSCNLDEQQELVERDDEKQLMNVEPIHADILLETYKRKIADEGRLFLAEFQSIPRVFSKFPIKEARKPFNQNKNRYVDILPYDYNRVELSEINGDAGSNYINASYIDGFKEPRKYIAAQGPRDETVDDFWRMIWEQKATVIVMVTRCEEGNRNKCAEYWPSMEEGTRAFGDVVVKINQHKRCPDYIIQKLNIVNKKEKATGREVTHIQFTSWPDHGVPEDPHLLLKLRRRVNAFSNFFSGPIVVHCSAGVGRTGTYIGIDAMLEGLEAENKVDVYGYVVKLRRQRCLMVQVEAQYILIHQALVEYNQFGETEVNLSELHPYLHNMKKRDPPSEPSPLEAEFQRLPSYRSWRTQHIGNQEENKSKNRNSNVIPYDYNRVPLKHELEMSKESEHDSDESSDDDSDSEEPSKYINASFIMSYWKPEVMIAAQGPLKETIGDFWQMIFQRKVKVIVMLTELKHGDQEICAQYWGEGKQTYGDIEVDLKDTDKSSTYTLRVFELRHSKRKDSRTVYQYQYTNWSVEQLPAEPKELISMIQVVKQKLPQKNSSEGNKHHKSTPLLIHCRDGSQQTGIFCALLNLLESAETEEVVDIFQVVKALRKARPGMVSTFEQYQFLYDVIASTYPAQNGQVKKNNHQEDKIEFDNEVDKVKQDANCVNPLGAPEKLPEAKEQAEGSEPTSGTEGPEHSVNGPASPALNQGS

No constants are given. Whether binding was seen depends on the method and setting.

“CD301-6xHis (soluble human CD301) (from UniProt Q8IUN9-1) (receptor)”: the binding result was “no binding”.

These data come from PMC12767472.
